No constants are given. Whether binding was seen depends on the method and setting. In cells and extracts the contact can be indirect. A yes stands for co-enrichment or nearness to the bait. Other partners may have been found. Where a sequence is shown, tags or fusion partners need not be part of it.
Target: T1, Flag-eGFP-WAC (WW domain-containing adaptor with coiled-coil) (human) (UniProt Q9BTA9)
T1 sequence: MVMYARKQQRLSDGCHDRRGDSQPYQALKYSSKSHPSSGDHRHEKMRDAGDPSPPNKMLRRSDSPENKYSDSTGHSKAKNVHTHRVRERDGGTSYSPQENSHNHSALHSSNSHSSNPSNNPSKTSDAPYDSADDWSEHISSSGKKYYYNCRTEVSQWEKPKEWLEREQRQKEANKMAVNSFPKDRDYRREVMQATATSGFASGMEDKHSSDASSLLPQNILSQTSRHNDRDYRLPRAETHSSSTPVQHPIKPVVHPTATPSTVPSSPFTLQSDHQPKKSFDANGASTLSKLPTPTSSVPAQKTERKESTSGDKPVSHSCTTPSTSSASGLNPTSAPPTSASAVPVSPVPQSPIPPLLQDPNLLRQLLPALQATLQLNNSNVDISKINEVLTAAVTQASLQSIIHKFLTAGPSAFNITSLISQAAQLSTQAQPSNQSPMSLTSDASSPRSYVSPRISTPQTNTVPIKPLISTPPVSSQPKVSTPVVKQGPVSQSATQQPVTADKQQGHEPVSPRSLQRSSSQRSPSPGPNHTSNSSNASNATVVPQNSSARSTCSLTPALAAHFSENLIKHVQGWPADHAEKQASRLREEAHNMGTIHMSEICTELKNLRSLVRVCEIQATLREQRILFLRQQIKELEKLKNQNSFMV
Experiment: affinity purification with mass spectrometry; HEK293T cells transfected with Flag-eGFP-WAC or Flag-eGFP; lysates immunoprecipitated with anti-DYKDDDDK G1 affinity resin; LC-MS/MS

The chains behind the UniProt entries cited, without tags or fusion partners.
UniProt Q5VTR2: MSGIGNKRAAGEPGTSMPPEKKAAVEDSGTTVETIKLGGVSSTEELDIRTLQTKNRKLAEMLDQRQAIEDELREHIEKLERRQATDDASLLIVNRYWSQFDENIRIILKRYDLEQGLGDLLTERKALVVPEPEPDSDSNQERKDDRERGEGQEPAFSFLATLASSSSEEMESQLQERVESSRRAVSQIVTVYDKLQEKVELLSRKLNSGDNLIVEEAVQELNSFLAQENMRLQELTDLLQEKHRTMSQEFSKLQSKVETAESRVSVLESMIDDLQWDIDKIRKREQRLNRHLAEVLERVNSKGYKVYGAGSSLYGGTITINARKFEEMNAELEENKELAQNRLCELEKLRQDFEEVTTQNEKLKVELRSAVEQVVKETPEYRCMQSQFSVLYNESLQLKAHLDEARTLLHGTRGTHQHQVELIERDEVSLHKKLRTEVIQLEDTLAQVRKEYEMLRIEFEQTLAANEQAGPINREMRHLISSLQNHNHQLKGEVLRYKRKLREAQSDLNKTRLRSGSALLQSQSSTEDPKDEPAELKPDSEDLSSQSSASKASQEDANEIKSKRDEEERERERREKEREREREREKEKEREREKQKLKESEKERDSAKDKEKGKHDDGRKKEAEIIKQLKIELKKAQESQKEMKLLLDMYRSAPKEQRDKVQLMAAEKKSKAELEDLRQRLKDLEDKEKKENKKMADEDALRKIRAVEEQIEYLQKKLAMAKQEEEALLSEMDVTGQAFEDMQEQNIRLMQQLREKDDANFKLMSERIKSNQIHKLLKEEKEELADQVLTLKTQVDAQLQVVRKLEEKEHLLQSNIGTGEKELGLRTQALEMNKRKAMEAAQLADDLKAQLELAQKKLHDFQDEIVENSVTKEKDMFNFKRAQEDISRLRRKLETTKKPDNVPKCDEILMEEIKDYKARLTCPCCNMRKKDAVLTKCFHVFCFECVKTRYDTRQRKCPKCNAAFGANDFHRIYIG

Substance: RNF20 (from UniProt Q5VTR2 1-975)
- binding: binds

From article PMC11904943
